Experimental data as given in patent publication US9018425B2, “Use of sulfonic acid for recovering glycerol resulting from the triglyceride transesterification reaction” (Arkema France, priority 2013, dated 2015).
Structures can show the parent of a compound that is named as a salt. Where two headings read alike, the source gives them in different places.

Assay: Comparative study of various acids with a crude glycerol phase (acidification to pH about 4)
[1] = acid added until pH about 4, relative to mass of crude glycerol phase (40 g)
[2] = acidification of crude glycerol phase to pH about 4
[3] = glycerol enriched phase after acidification and decanting

| Compound | added quantity [1] [weight %] | ΔT (exotherm, increase of the temperature of the reaction mixture) [2] [°C] | IA (acid number of the glycerol enriched phase) [3] | IA (acid number of the glycerol enriched phase) | added quantity [weight %] | ΔT (exotherm, increase of the temperature of the reaction mixture) [°C] |
| --- | --- | --- | --- | --- | --- | --- |
| CC(=O)O [AAc, acetic acid] | 15.0 | 2 | 92 mg of KOH/g | – | – | – |
| O=C(O)CC(O)(CC(=O)O)C(=O)O [ACi, citric acid] | 19.5 | 8 | 37 mg of KOH/g | – | – | – |
| O=S(=O)(O)O [H2SO4, sulfuric acid] | – | – | – | 2 mg of KOH/g | 4.5 | 12 |
| O=P(O)(O)O [H3PO4, phosphoric acid] | 11.3 | 6 | 61 mg of KOH/g | – | – | – |
| Cl [HCl, hydrochloric acid] | 9.3 | 8 | 2 mg of KOH/g | – | – | – |
| CS(=O)(=O)O [MSA, methane sulfonic acid] | 11.5 | 6 | 1 mg of KOH/g | – | – | – |
